Consider three molecules from paper PMC9500918, “Extended N-Terminal Acetyltransferase Naa50 in Filamentous Fungi Adds to Naa50 Diversity” (International Journal of Molecular Sciences, 2022).

Protein sequences, listed by entry. Tags and fused reporters are not part of them. Lines headed by an entry give the natural chain unless they say otherwise; changes in a name come on top.
UniProt G0S1V5: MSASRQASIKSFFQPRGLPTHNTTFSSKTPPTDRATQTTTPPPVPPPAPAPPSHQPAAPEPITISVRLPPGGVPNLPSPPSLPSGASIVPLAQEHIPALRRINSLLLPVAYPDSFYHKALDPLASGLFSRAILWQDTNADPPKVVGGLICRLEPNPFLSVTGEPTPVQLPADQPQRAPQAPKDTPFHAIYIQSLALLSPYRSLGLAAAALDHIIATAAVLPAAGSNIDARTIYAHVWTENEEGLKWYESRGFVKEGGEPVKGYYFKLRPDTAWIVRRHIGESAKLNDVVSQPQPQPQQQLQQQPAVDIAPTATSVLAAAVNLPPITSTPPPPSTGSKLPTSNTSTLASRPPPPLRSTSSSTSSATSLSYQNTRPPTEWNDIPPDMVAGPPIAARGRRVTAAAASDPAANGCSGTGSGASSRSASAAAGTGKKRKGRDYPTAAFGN
UniProt G0S4M4: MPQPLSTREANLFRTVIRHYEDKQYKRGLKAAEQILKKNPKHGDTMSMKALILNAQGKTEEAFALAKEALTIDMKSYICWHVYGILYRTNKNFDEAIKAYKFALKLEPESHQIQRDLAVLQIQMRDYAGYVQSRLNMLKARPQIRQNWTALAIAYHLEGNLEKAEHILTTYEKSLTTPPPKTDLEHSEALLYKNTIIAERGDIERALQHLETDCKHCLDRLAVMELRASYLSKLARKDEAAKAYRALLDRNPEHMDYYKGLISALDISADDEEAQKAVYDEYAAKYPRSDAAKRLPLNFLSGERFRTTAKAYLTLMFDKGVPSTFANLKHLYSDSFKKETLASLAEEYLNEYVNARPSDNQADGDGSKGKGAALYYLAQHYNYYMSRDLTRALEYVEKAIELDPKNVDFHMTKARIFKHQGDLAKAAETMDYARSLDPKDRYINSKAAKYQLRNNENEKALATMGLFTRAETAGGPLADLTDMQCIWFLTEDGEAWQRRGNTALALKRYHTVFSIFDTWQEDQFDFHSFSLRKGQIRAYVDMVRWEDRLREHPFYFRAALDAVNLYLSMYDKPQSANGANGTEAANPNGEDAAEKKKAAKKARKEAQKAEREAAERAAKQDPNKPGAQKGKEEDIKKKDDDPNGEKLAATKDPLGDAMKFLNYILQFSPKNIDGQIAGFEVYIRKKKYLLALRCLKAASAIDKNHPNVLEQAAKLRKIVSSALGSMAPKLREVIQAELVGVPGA
UniProt G0SCS3: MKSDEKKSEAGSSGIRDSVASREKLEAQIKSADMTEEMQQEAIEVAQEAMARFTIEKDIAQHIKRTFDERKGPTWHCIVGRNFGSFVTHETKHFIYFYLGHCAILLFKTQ
UniProt G0SCY6: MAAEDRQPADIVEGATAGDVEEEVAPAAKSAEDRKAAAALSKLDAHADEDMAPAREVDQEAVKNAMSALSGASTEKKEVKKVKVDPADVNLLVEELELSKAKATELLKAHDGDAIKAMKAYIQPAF

These are yes or no findings as the source states them, for the method shown. For some assays here: A result given as binding can be weak or reduced; the word gives no strength. For some assays here: In cells and extracts the contact can be indirect.

The target of assay [1] is CtNaa50_(1-289) (Chaetomium thermophilum) (UniProt G0S1V5). The assay can be described thus: SEC; analytical SEC on Superdex 200 10/300 GL in buffer G500 (20 mM pH 7.5 HEPES, 500 mM NaCl), 10 min incubation of the proteins before the run; peak fractions on Coomassie-stained SDS-PAGE; both purified. Background: Size exclusion chromatography separates by hydrodynamic size, large species first.

In assay [2] the target is full-length CtNaa15 with C-terminal Flag-TEV-protein A tag (Chaetomium thermophilum) (UniProt G0S4M4). The assay can be described thus: pull-down; pull-out of protein A-tagged Naa15 or Naa50 from cleared C. thermophilum lysate on IgG Sepharose, 500 mM NaCl, elution by TEV cleavage; SDS-PAGE stained with Coomassie.
The target in assay [3] is protein A-TEV-Flag-tagged full-length CtNaa50 (Chaetomium thermophilum) (UniProt G0S1V5). Described as above.
For assay [4], the target named is CtNaa50_(82-289) with C-terminal hexa-histidine tag (Chaetomium thermophilum). The assay can be described thus: crystal structure; sitting drop at 18 °C, CtNaa50_(82-289) mixed 1:2 (molar) with CoA-Ac-MVNAL; 1.1 Å; both purified.
The target of assay [5] is CtNaa50_(1-289) (Chaetomium thermophilum) (UniProt G0S1V5). The assay can be described thus: nanoDSF (thermal shift); 10 µM protein with or without 100 µM CoA-Ac-MVNAL in buffer G500, 15-95 °C at 1.5 °C/min, triplicates; both purified. (Differential scanning fluorimetry follows unfolding on heating by fluorescence.)
The target in assay [6] is CtNaa50_(82-289) with C-terminal hexa-histidine tag (Chaetomium thermophilum). The assay is described as above.
Assay [7] addresses CtNaa50_(82-445) (Chaetomium thermophilum). The assay is described as above.
The target in assay [8] is protein A-TEV-Flag-tagged full-length CtNaa50 (Chaetomium thermophilum) (UniProt G0S1V5). The description is as above.

With CtDLC1-His6 (from UniProt G0SCS3), the binding result in assay [1] was “binds”.
Turning to “CtHypK (endogenous) (from UniProt G0SCY6)”, the binding result in assay [2] is reported as “binds”; in assay [3], “no binding”.

B1: bisubstrate analog CoA-Ac-MVNAL (peptide)
peptide: MVNAL
modifications: CoA-Ac- on the N-terminus (bisubstrate analog CoA-Ac-MVNAL)
In the case of B1, the binding result in assay [4], in assay [5], in assay [6], in assay [7] and in assay [8] was “binds” in each case.
